PMC10701626
These are yes or no findings as the source states them, for the method shown. Binding seen in cells or lysates may run through a third protein. Some results given as binding are weak or reduced against the parent protein; the word gives no strength.

Protein sequences, listed by entry. Tags and fused reporters are not part of them. Residues count along the entry.
UniProt P10244: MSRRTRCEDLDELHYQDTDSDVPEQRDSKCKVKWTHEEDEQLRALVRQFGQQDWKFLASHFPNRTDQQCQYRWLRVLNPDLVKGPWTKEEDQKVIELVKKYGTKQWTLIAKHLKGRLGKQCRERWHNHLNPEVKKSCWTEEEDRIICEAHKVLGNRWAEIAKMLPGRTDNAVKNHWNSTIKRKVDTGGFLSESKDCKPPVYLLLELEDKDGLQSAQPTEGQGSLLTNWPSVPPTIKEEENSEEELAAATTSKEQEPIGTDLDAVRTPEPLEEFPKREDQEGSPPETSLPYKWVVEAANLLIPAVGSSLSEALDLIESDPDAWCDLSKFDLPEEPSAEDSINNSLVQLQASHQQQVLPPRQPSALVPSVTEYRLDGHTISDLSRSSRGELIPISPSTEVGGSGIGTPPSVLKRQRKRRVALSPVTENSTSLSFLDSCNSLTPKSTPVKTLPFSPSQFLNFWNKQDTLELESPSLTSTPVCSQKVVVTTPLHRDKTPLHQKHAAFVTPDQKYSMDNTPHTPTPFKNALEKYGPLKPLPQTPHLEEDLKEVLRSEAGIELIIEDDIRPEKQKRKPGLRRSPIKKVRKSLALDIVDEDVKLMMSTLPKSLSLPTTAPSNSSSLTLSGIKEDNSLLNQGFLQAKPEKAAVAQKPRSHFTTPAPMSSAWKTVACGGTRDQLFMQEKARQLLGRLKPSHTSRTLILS
UniProt Q5TKA1: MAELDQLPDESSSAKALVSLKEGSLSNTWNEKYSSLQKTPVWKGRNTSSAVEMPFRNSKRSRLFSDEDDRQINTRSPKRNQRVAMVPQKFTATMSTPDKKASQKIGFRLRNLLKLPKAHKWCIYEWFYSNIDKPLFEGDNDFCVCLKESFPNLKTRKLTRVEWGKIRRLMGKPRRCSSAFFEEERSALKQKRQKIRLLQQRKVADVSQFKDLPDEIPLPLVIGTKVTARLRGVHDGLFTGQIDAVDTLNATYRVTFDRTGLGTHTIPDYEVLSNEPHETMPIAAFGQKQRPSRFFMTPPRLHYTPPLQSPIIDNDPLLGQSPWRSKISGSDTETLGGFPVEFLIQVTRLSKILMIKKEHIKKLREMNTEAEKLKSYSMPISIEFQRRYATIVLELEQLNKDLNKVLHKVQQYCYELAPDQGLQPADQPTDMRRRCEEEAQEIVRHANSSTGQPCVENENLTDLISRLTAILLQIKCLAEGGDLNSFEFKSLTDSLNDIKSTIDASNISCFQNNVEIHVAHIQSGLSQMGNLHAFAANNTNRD
UniProt Q15648: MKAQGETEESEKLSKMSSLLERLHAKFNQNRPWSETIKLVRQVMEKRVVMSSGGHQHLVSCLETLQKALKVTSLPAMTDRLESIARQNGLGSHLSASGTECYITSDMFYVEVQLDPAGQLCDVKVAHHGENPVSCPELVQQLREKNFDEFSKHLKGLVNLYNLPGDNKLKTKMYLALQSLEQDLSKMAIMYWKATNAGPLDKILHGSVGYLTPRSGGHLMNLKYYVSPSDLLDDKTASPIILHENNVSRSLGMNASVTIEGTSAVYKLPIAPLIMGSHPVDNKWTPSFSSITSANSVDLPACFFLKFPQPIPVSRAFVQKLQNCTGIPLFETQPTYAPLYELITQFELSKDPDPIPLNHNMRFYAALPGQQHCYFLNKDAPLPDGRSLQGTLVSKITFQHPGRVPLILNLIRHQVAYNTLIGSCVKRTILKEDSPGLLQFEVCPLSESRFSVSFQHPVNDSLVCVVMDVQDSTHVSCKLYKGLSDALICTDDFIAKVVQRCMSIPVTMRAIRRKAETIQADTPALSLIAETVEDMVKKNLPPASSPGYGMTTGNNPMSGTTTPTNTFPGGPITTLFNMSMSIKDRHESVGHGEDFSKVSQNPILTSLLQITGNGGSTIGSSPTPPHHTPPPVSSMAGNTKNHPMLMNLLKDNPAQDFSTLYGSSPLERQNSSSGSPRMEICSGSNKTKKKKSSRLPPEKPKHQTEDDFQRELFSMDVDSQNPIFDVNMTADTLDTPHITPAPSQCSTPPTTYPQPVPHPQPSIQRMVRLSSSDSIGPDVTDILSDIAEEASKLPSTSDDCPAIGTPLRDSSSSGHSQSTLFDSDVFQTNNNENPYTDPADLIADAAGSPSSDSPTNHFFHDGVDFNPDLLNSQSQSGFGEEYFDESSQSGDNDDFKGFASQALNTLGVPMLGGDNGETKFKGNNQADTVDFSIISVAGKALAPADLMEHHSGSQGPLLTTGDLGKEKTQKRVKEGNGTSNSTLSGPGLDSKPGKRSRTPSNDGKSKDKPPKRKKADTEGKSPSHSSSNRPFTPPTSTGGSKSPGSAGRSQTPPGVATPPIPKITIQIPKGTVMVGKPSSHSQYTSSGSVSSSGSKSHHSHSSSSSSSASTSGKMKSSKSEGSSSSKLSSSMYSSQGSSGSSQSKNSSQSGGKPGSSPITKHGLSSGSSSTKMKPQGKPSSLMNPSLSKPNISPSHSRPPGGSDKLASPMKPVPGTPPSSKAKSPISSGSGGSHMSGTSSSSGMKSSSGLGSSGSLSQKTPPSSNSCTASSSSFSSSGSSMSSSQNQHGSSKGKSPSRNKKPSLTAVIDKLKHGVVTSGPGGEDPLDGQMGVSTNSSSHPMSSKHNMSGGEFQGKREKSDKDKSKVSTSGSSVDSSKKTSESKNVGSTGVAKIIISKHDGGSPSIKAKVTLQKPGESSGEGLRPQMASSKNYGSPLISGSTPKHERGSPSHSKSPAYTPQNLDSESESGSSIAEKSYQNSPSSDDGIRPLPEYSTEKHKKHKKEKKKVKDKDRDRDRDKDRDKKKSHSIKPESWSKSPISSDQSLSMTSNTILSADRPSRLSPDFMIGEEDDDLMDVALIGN
UniProt Q9Y4K0, residues 26-774: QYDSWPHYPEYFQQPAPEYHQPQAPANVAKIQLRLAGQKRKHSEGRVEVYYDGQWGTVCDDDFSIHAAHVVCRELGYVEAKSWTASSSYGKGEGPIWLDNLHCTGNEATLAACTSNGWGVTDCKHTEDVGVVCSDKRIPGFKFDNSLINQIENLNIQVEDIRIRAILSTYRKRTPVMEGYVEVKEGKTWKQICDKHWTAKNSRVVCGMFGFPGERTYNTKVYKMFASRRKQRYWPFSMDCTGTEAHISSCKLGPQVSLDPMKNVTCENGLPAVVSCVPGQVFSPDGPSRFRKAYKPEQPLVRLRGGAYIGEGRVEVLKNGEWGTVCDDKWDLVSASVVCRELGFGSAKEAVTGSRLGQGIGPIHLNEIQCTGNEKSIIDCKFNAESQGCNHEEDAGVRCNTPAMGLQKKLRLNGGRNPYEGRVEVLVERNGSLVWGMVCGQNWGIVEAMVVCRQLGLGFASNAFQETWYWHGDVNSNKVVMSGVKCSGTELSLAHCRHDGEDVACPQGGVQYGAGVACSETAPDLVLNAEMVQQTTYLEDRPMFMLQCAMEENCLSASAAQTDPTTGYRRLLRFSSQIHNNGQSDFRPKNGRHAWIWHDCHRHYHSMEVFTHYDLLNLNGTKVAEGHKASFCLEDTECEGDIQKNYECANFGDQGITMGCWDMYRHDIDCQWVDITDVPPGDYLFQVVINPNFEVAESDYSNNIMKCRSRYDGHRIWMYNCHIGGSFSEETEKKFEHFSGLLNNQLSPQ

Assays:
[1] = target: B-Myb (Proto-Oncogene Like 2), endogenous (human (endogenous in MDA-MB-231)) (UniProt P10244); test: co-IP; pulldown of endogenous Lin9, B-Myb or FOXM1 (4 μg antibody, Protein A Dynabeads) from MDA-MB-231 nuclear extract; irrelevant IgG as control
[2] = target: Lin9 (MuvB subunit), endogenous (human (endogenous in MDA-MB-231)) (UniProt Q5TKA1); test: as above
[3] = target: T1, Forkhead Box M1 (FOXM1), endogenous (human (endogenous in MDA-MB-231)) (UniProt Q08050); test: as above
T1 sequence: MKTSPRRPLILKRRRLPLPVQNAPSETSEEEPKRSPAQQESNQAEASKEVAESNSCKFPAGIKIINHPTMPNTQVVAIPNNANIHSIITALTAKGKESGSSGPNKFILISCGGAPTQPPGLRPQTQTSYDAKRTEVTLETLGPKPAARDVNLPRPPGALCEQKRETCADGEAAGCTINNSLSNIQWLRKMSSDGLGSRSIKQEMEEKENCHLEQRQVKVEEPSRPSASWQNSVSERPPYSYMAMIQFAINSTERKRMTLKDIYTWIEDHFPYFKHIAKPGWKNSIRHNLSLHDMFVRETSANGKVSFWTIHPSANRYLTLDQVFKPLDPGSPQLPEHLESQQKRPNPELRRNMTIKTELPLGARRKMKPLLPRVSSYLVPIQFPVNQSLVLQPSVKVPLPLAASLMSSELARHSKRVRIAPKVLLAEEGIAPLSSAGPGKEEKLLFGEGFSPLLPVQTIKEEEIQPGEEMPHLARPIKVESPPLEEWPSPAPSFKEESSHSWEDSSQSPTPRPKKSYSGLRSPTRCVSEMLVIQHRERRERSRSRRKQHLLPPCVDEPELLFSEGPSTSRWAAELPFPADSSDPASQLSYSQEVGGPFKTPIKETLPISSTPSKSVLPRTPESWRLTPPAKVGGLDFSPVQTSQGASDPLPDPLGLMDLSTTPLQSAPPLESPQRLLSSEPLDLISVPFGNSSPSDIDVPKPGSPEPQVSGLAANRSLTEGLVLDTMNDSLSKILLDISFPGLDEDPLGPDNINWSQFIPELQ

[4] = target: MED1 (Mediator complex subunit), endogenous (human (endogenous in MDA-MB-231)) (UniProt Q15648); test: co-IP; endogenous MED1 pulldown (5 μg anti-MED1, Protein A Dynabeads) from MDA-MB-231 nuclear extract; cells with DMSO, 40 μM PXS for 96 h or 5 μM JQ1 for 24 h (BRD4S-MED1 decreased with JQ1)

Measured: binding

MED1 (Mediator complex subunit), endogenous (from UniProt Q15648 1-1581)
binds: [1] | [2]

Lysyl oxidase-like 2 (LOXL2), endogenous (from UniProt Q9Y4K0 26-774)
binds: all assays above
